The text below walks through data of PubChem BioAssay AID192 (DTP/NCI, 2004).

Each structure is given as a SMILES string. The list shows only some results of the screen, not a fair sample: it covers a few groups of compounds. Not every dose and run of a compound is shown. T/C is the treated group as % of the vehicle group. Where survival is the endpoint, the PubChem record calls one and a half times the control and up active, and a quarter to a half above the control has no call in these data; cut-offs in other NCI protocols can differ. Some entries show no survivor count and are marked so; the dose need not have been tolerated. Schedule codes are those of the source, read here as Q, the interval in days (D) or hours (H), X, the number of doses. Some doses were run more than once; the results are listed from low to high. Counts like (3×) give the number of equal values in this list.

The test concerns BDF1 mice, B16 melanoma ip, median survival T/C. Put plainly: NCI In Vivo Anticancer Drug Screen. Data for tumor model B16 Melanoma (intraperitoneal) in B6D2F1 (BDF1) mice. The conditions noted are these: T/C endpoint: median survival time, higher T/C = longer survival. The method, then:
The antitumor activity of compounds was measured in mice bearing transplantable tumors. Survival or tumor size were measured and the results are expressed as the measurement made in the treated group (T) divided by the measurement made in the vehicle treated control group (C). The tumor model used in this assay is B16 Melanoma (intraperitoneal) in B6D2F1 (BDF1) mice

Regarding `CCC1(CC)NC(=O)N(CCN(CCCl)CCCl)C1=O`, the T/C runs as follows: (dose: 0.75 mg/kg/injection, schedule: Q01DX009 (ip), vehicle: saline) 109 % of control [survivor count not shown]; (dose: 0.78 mg/kg/injection, schedule: Q01DX009 (ip), vehicle: saline) 101 % of control [survivor count not shown]; (dose: 1.5 mg/kg/injection, schedule: Q01DX009 (ip), vehicle: saline) 102 % of control [survivor count not shown]; (dose: 1.56 mg/kg/injection, schedule: Q01DX009 (ip), vehicle: saline) 90 [survivor count not shown], 114 [survivor count not shown] (2×), 136 % of control [survivor count not shown]; (dose: 3.0 mg/kg/injection, schedule: Q01DX009 (ip), vehicle: saline) 114 % of control [survivor count not shown]; (dose: 3.12 mg/kg/injection, schedule: Q01DX009 (ip), vehicle: saline) 119 [survivor count not shown], 134 [survivor count not shown], 135 [survivor count not shown], 163 % of control [survivor count not shown]. For the same compound, the T/C (dose: 6.0 mg/kg/injection, schedule: Q01DX009 (ip), vehicle: saline) is 127 % of control [survivor count not shown] and the T/C (dose: 6.25 mg/kg/injection, schedule: Q01DX009 (ip), vehicle: saline) is 107 [survivor count not shown], 134 [survivor count not shown], 161 [survivor count not shown], 162 % of control [survivor count not shown].

With `O=S=NN(CCCl)CCCl`, the T/C is 102 % of control [survivor count not shown] (dose: 0.3 mg/kg/injection, schedule: Q01DX009 (ip), vehicle: saline); 97 % of control [survivor count not shown] (dose: 0.63 mg/kg/injection, schedule: Q01DX009 (ip), vehicle: saline); 102 % of control [survivor count not shown] (dose: 1.25 mg/kg/injection, schedule: Q01DX009 (ip), vehicle: saline); 111 % of control [survivor count not shown] (dose: 2.5 mg/kg/injection, schedule: Q01DX009 (ip), vehicle: saline); 120 % of control [survivor count not shown] (dose: 5.0 mg/kg/injection, schedule: Q01DX009 (ip), vehicle: saline).

On to `NC1CCCCC1.NP(=O)(O)N(CCCl)CCCl`, for which the T/C was 137 % of control [survivor count not shown] (dose: 6.25 mg/kg/injection, schedule: Q01DX009 (ip), vehicle: water); 156 % of control [survivor count not shown] (dose: 12.5 mg/kg/injection, schedule: Q01DX009 (ip), vehicle: water); 121 % of control [survivor count not shown] (dose: 25.0 mg/kg/injection, schedule: Q01DX001 (ip), vehicle: water); 182 % of control [survivor count not shown] (dose: 25.0 mg/kg/injection, schedule: Q01DX009 (ip), vehicle: water); 184 % of control [survivor count not shown] (dose: 25.0 mg/kg/injection, schedule: Q04DX003 (ip), vehicle: water); 147 % of control [survivor count not shown] (dose: 25.0 mg/kg/injection, schedule: Q08DX002 (ip), vehicle: water). Also, the T/C (dose: 50.0 mg/kg/injection, schedule: Q01DX001 (ip), vehicle: water) is 126 % of control [survivor count not shown]; the T/C (dose: 50.0 mg/kg/injection, schedule: Q04DX003 (ip), vehicle: water) was 155 % of control [survivor count not shown]; the T/C (dose: 50.0 mg/kg/injection, schedule: Q08DX002 (ip), vehicle: water) is 167 % of control [survivor count not shown]; the T/C (dose: 100.0 mg/kg/injection, schedule: Q01DX001 (ip), vehicle: water) was 144 % of control [survivor count not shown]; the T/C (dose: 100.0 mg/kg/injection, schedule: Q08DX002 (ip), vehicle: water) is 231 % of control [survivor count not shown].

Take `BrCCN(CCBr)c1ccc2c(c1)Cc1ccccc1-2`: the T/C is 123 % of control [survivor count not shown] (dose: 3.0 mg/kg/injection, schedule: Q01DX009 (ip), vehicle: saline with Tween-80); 130 % of control [survivor count not shown] (dose: 3.12 mg/kg/injection, schedule: Q01DX009 (ip), vehicle: Klucel (hydroxypropylcellulose) (HPC)); 217 % of control [survivor count not shown] (dose: 5.56 mg/kg/injection, schedule: Q01DX009 (ip), vehicle: saline with Tween-80); 135 % of control [survivor count not shown] (dose: 6.0 mg/kg/injection, schedule: Q01DX009 (ip), vehicle: saline with Tween-80); 150 % of control [survivor count not shown] (dose: 6.25 mg/kg/injection, schedule: Q01DX009 (ip), vehicle: Klucel (hydroxypropylcellulose) (HPC)); 252 % of control [survivor count not shown] (dose: 8.33 mg/kg/injection, schedule: Q01DX009 (ip), vehicle: saline with Tween-80). Besides, the T/C is 162 % of control [survivor count not shown] (dose: 12.0 mg/kg/injection, schedule: Q01DX009 (ip), vehicle: saline with Tween-80); 171 % of control [survivor count not shown] (dose: 12.5 mg/kg/injection, schedule: Q01DX009 (ip), vehicle: Klucel (hydroxypropylcellulose) (HPC)); 117 [survivor count not shown] and 172 % of control [survivor count not shown] (dose: 12.5 mg/kg/injection, schedule: Q01DX009 (ip), vehicle: saline with Tween-80); 98 % of control [survivor count not shown] (dose: 18.7 mg/kg/injection, schedule: Q01DX009 (ip), vehicle: saline with Tween-80); 153 % of control [survivor count not shown] (dose: 24.0 mg/kg/injection, schedule: Q01DX009 (ip), vehicle: saline with Tween-80); 198 % of control [survivor count not shown] (dose: 25.0 mg/kg/injection, schedule: Q01DX009 (ip), vehicle: Klucel (hydroxypropylcellulose) (HPC)). Further, the T/C was 102 % of control [survivor count not shown] (dose: 25.0 mg/kg/injection, schedule: Q01DX009 (ip), vehicle: saline with Tween-80); 106 % of control [survivor count not shown] (dose: 48.0 mg/kg/injection, schedule: Q01DX009 (ip), vehicle: saline with Tween-80); 116 % of control [survivor count not shown] (dose: 50.0 mg/kg/injection, schedule: Q01DX009 (ip), vehicle: Klucel (hydroxypropylcellulose) (HPC)).

Regarding `COc1ccc(C(=O)O)cc1N(CCCl)CCCl`, the T/C is 107 % of control [survivor count not shown] (dose: 0.25 mg/kg/injection, schedule: Q01DX009 (ip), vehicle: Klucel (hydroxypropylcellulose) (HPC)); 107 % of control [survivor count not shown] (dose: 0.5 mg/kg/injection, schedule: Q01DX009 (ip), vehicle: Klucel (hydroxypropylcellulose) (HPC)); 109 [survivor count not shown] and 117 % of control [survivor count not shown] (dose: 1.0 mg/kg/injection, schedule: Q01DX009 (ip), vehicle: Klucel (hydroxypropylcellulose) (HPC)); 121 [survivor count not shown] and 169 % of control [survivor count not shown] (dose: 1.0 mg/kg/injection, schedule: Q01DX009 (ip), vehicle: saline with Tween-80); 117 [survivor count not shown] and 144 % of control [survivor count not shown] (dose: 2.0 mg/kg/injection, schedule: Q01DX009 (ip), vehicle: Klucel (hydroxypropylcellulose) (HPC)); 145 [survivor count not shown] and 153 % of control [survivor count not shown] (dose: 2.0 mg/kg/injection, schedule: Q01DX009 (ip), vehicle: saline with Tween-80). Further, the T/C by setting is: (dose: 4.0 mg/kg/injection, schedule: Q01DX009 (ip), vehicle: Klucel (hydroxypropylcellulose) (HPC)) 117 [survivor count not shown] and 160 % of control [survivor count not shown]; (dose: 4.0 mg/kg/injection, schedule: Q01DX009 (ip), vehicle: saline with Tween-80) 127 [survivor count not shown] and 158 % of control [survivor count not shown]; (dose: 8.0 mg/kg/injection, schedule: Q01DX009 (ip), vehicle: saline with Tween-80) 163 [survivor count not shown] and 243 % of control [survivor count not shown].
